Structures can show the parent of a compound that is named as a salt. This is one part of the list. This data set is noisy: repeats of one test often differ as much as different tests do.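 The human kidney-derived cells carry a stably integrated construct of eight TEAD-binding elements driving luciferase, read by luminescence in a drug-repurposing library screen. A compound counts as a hit when its signal is more than five robust Z scores above the plate mean.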
Tested on: HEK293A TEAD-LUC reporter
Test: TEAD-luciferase reporter activity (YAP activation), robust Z score vs plate; higher = stronger YAP/TEAD activation
Details: 24 h

## O=C(O)Cn1c(=O)n(Cc2ccc(Br)cc2F)c(=O)c2ccc(F)cc21
Compound concentration: 200 nM
  TEAD-luciferase reporter activity: inactive: -0.572
Compound concentration: 2 uM
  TEAD-luciferase reporter activity: inactive: 3.41
Compound concentration: 10 uM
  TEAD-luciferase reporter activity: inactive: -0.104

## CC(=O)OCC1=C(C(=O)O)N2C(=O)[C@@H](NC(=O)CC#N)[C@H]2SC1
Compound concentration: 200 nM
  TEAD-luciferase reporter activity: inactive: 0.498
Compound concentration: 2 uM
  TEAD-luciferase reporter activity: inactive: -1.03
Compound concentration: 10 uM
  TEAD-luciferase reporter activity: inactive: 2.93

## CC1=C(C#N)C(c2cccc3ncc(-c4ccccc4)cc23)C(C(=O)OCCC#N)=C(C)N1 (stereo unspecified)
Compound concentration: 200 nM
  TEAD-luciferase reporter activity: inactive: 1.87
Compound concentration: 2 uM
  TEAD-luciferase reporter activity: inactive: -1.82
Compound concentration: 10 uM
  TEAD-luciferase reporter activity: inactive: 1.29

## COc1cccc(CNCC(O)COc2ccc3[nH]c(=O)ccc3c2)c1 (stereo unspecified)
Compound concentration: 200 nM
  TEAD-luciferase reporter activity: inactive: -1.03
Compound concentration: 2 uM
  TEAD-luciferase reporter activity: inactive: 0.213
Compound concentration: 10 uM
  TEAD-luciferase reporter activity: inactive: -1.07

## COc1cc2c(cc1OC)[C@H](CCN1CCN(c3ccccc3)CC1)[C@H](C)N2
Compound concentration: 200 nM
  TEAD-luciferase reporter activity: inactive: 0.506
Compound concentration: 2 uM
  TEAD-luciferase reporter activity: inactive: 0.124
Compound concentration: 10 uM
  TEAD-luciferase reporter activity: inactive: 4.76

## Oc1nccc2cc(OC3CCNCC3)ccc12
Compound concentration: 200 nM
  TEAD-luciferase reporter activity: inactive: 0.838
Compound concentration: 2 uM
  TEAD-luciferase reporter activity: inactive: 1.21
Compound concentration: 10 uM
  TEAD-luciferase reporter activity: inactive: 0.193

## Cc1oncc1C(=O)Nc1ccc(C(F)(F)F)cc1 [leflunomide]
Compound concentration: 200 nM
  TEAD-luciferase reporter activity: inactive: -1.25
Compound concentration: 2 uM
  TEAD-luciferase reporter activity: inactive: -0.211
Compound concentration: 10 uM
  TEAD-luciferase reporter activity: inactive: 0.875

## Cc1ccc2c([nH]c(=O)c3c(=O)cc(C(=O)OCCC(C)C)oc32)c1C [repirinast]
Compound concentration: 200 nM
  TEAD-luciferase reporter activity: inactive: -0.315
Compound concentration: 2 uM
  TEAD-luciferase reporter activity: inactive: 0.0144
Compound concentration: 10 uM
  TEAD-luciferase reporter activity: inactive: 0.608

## CC(=O)N1Cc2ccccc2CC12CCCN(C(=O)c1ccccc1)C2 (stereo unspecified)
Compound concentration: 200 nM
  TEAD-luciferase reporter activity: inactive: 2.53
Compound concentration: 10 uM
  TEAD-luciferase reporter activity: inactive: 0.983

## Cc1cc(Nc2ncnc3ccc(-c4ccc(CNCCS(C)(=O)=O)o4)cc23)ccc1Oc1ccn2ncnc2c1 [analog of ARRY-380]
Compound concentration: 200 nM
  TEAD-luciferase reporter activity: inactive: -1.46
Compound concentration: 2 uM
  TEAD-luciferase reporter activity: inactive: -0.512
Compound concentration: 10 uM
  TEAD-luciferase reporter activity: inactive: 0.848

## CCCc1c(OCCCOc2ccc3c(c2)OC(C(=O)O)CC3)ccc(C(C)=O)c1OC (stereo unspecified)
Compound concentration: 200 nM
  TEAD-luciferase reporter activity: inactive: 0.224
Compound concentration: 2 uM
  TEAD-luciferase reporter activity: inactive: -0.11
Compound concentration: 10 uM
  TEAD-luciferase reporter activity: inactive: -1.22

## COC(=O)C(C)c1ccc(-c2ccsc2)cc1 (stereo unspecified)
Compound concentration: 200 nM
  TEAD-luciferase reporter activity: inactive: -0.864
Compound concentration: 2 uM
  TEAD-luciferase reporter activity: inactive: -0.688
Compound concentration: 10 uM
  TEAD-luciferase reporter activity: inactive: -0.401

## COc1cc2c(cc1OC)[C@@H](Cc1cc(OC)c(OC)c(OC)c1)[N+](C)(CCCOC(=O)CC/C=C/CCC(=O)OCCC[N+]1(C)CCc3cc(OC)c(OC)cc3[C@H]1Cc1cc(OC)c(OC)c(OC)c1)CC2 (stereo partly specified) [Mivacurium chloride]
Compound concentration: 200 nM
  TEAD-luciferase reporter activity: inactive: -0.436
Compound concentration: 2 uM
  TEAD-luciferase reporter activity: inactive: -0.864
Compound concentration: 10 uM
  TEAD-luciferase reporter activity: inactive: 1.79

## CNC(C)CCC=C(C)C (stereo unspecified) [Isometheptene hydrochloride]
Compound concentration: 200 nM
  TEAD-luciferase reporter activity: inactive: 0.062
Compound concentration: 2 uM
  TEAD-luciferase reporter activity: inactive: -0.794
Compound concentration: 10 uM
  TEAD-luciferase reporter activity: inactive: -0.0743

## CN(C)C/C=C/C(=O)Nc1cc2c(Nc3ccc(F)c(Cl)c3)ncnc2cc1O[C@H]1CCOC1 [Afatinib]
Compound concentration: 2 uM
  TEAD-luciferase reporter activity: inactive: -1.01

## CN(C)C/C=C/C(=O)Nc1cc2c(Nc3ccc(F)c(Cl)c3)ncnc2cc1O[C@H]1CCOC1 [Afatinib (BIBW2992)]
Compound concentration: 200 nM
  TEAD-luciferase reporter activity: inactive: 0.367
Compound concentration: 10 uM
  TEAD-luciferase reporter activity: inactive: 0.0624

## Cn1cc(-c2ccc(F)c(C(F)(F)F)c2)nc1C1CCN(c2ncnc3[nH]ncc23)CC1
Compound concentration: 200 nM
  TEAD-luciferase reporter activity: inactive: -1.05
Compound concentration: 2 uM
  TEAD-luciferase reporter activity: inactive: -1.41
Compound concentration: 10 uM
  TEAD-luciferase reporter activity: inactive: -1.71

## CCCCCN(CCC12CC3CC(CC(C3)C1)C2)C(=O)NCCCc1ccncc1
Compound concentration: 200 nM
  TEAD-luciferase reporter activity: inactive: -1.03
Compound concentration: 2 uM
  TEAD-luciferase reporter activity: inactive: -1.92
Compound concentration: 10 uM
  TEAD-luciferase reporter activity: inactive: 1.19

## Fc1ccc(-c2c[n+](CCc3ccccc3)c3n2CCC3)cc1
Compound concentration: 200 nM
  TEAD-luciferase reporter activity: inactive: -1.12
Compound concentration: 2 uM
  TEAD-luciferase reporter activity: inactive: -0.562
Compound concentration: 10 uM
  TEAD-luciferase reporter activity: inactive: 2.69

## CC(CCC(=O)NCCS(=O)(=O)O)[C@H]1CC[C@H]2[C@@H]3CC[C@@H]4C[C@H](O)CC[C@]4(C)[C@H]3C[C@H](O)[C@]12C (stereo partly specified) [Taurodeoxycholic acid sodium salt hydrate]
Compound concentration: 200 nM
  TEAD-luciferase reporter activity: inactive: 0.218
Compound concentration: 10 uM
  TEAD-luciferase reporter activity: inactive: 0.105

## Cc1cc(F)ccc1[C@H]1C[C@@H](N2CCN3C(=O)CC[C@H]3C2)CCN1C(=O)N(C)[C@H](C)c1cc(C(F)(F)F)cc(C(F)(F)F)c1 [orvepitant]
Compound concentration: 200 nM
  TEAD-luciferase reporter activity: inactive: -1.2
Compound concentration: 2 uM
  TEAD-luciferase reporter activity: inactive: -1.23
Compound concentration: 10 uM
  TEAD-luciferase reporter activity: inactive: 2.02

## COCCN1CCN(CC2CCN(c3ccc(Cl)cc3)C2=O)CC1 (stereo unspecified)
Compound concentration: 200 nM
  TEAD-luciferase reporter activity: inactive: -0.519
Compound concentration: 2 uM
  TEAD-luciferase reporter activity: inactive: 2.88
Compound concentration: 10 uM
  TEAD-luciferase reporter activity: inactive: 4.59

## Cc1nnc(SCC2=C(C(=O)O)N3C(=O)[C@@H](NC(=O)C(N)c4ccc(O)cc4)[C@H]3SC2)s1 (stereo partly specified)
Compound concentration: 200 nM
  TEAD-luciferase reporter activity: inactive: -0.0458
Compound concentration: 2 uM
  TEAD-luciferase reporter activity: inactive: 2.68
Compound concentration: 10 uM
  TEAD-luciferase reporter activity: inactive: 0.0551

## CCN(CC)CCCc1c(C)[nH]c(CCSCc2csc(NC(=N)N)n2)nc1=O
Compound concentration: 200 nM
  TEAD-luciferase reporter activity: inactive: -1.23
Compound concentration: 2 uM
  TEAD-luciferase reporter activity: inactive: 0.0577
Compound concentration: 10 uM
  TEAD-luciferase reporter activity: inactive: 0.164

## Nc1nccc2c1nnn2Cc1c(F)cccc1F
Compound concentration: 200 nM
  TEAD-luciferase reporter activity: inactive: -0.666
Compound concentration: 2 uM
  TEAD-luciferase reporter activity: inactive: 3.48
Compound concentration: 10 uM
  TEAD-luciferase reporter activity: inactive: 0.912

## CC(C)(C)C(O)(COc1ccc(Cl)cc1)Cn1cncn1 (stereo unspecified) [vibunazole]
Compound concentration: 200 nM
  TEAD-luciferase reporter activity: inactive: -1.56
Compound concentration: 2 uM
  TEAD-luciferase reporter activity: inactive: -1.38
Compound concentration: 10 uM
  TEAD-luciferase reporter activity: inactive: 4.38

## CNCC(=O)OCc1cccnc1N(C)C(=O)OC(C)[n+]1cnn(C[C@](O)(c2cc(F)ccc2F)[C@@H](C)c2nc(-c3ccc(C#N)cc3)cs2)c1 (stereo partly specified)
Compound concentration: 200 nM
  TEAD-luciferase reporter activity: inactive: -0.202
Compound concentration: 2 uM
  TEAD-luciferase reporter activity: inactive: 0.842
Compound concentration: 10 uM
  TEAD-luciferase reporter activity: inactive: -0.427

## Cc1c(CC(C)(C)C(=O)O)n(Cc2ccc(Cl)cc2)c2ccc(F)cc12
Compound concentration: 200 nM
  TEAD-luciferase reporter activity: inactive: -1.47
Compound concentration: 2 uM
  TEAD-luciferase reporter activity: inactive: -0.216
Compound concentration: 10 uM
  TEAD-luciferase reporter activity: inactive: 1.81

## O=C(O)C(CCN1CCOCC1)(c1ccccc1)c1ccccc1
Compound concentration: 200 nM
  TEAD-luciferase reporter activity: inactive: 0.00424
Compound concentration: 2 uM
  TEAD-luciferase reporter activity: inactive: 1.31
Compound concentration: 10 uM
  TEAD-luciferase reporter activity: inactive: -2.04

## COc1cccc(-c2ccc(CN3CCCC(NC(=O)c4cccc(Cl)c4)C3)cc2)c1 (stereo unspecified)
Compound concentration: 200 nM
  TEAD-luciferase reporter activity: inactive: -0.88
Compound concentration: 10 uM
  TEAD-luciferase reporter activity: inactive: -1.02

## C=CCCCCCCCCCSC(N)=[NH2+]
Compound concentration: 200 nM
  TEAD-luciferase reporter activity: inactive: -0.374
Compound concentration: 2 uM
  TEAD-luciferase reporter activity: inactive: -1.53
Compound concentration: 10 uM
  TEAD-luciferase reporter activity: inactive: 0.482

## Cc1c(CCO)sc[n+]1CCCCCCCCCCCC[n+]1csc(CCO)c1C [Albitiazolium bromide]
Compound concentration: 200 nM
  TEAD-luciferase reporter activity: inactive: -1.44
Compound concentration: 2 uM
  TEAD-luciferase reporter activity: inactive: -1.29
Compound concentration: 10 uM
  TEAD-luciferase reporter activity: inactive: 1.7

## CC1=C(/C=C/C(C)=C/C=C/c2ccc(C(=O)O)cc2)C(C)(C)CCC1 [Pelretin]
Compound concentration: 200 nM
  TEAD-luciferase reporter activity: inactive: 4.8
Compound concentration: 2 uM
  TEAD-luciferase reporter activity: inactive: -0.19
Compound concentration: 10 uM
  TEAD-luciferase reporter activity: inactive: 1.39

## O=C1Nc2cc(Cl)ccc2N(C(=O)CN(CCO)CCO)c2ccccc21 [Siltenzepine]
Compound concentration: 200 nM
  TEAD-luciferase reporter activity: inactive: -0.0456
Compound concentration: 2 uM
  TEAD-luciferase reporter activity: inactive: -1.41
Compound concentration: 10 uM
  TEAD-luciferase reporter activity: inactive: -1.01

From the supplement of paper PMC10735217
